This note sets out measurements from article PMC7104860.

The target in assay [1] is T1, Flag-tagged PIG-B (PIG-B-Flag) (Drosophila) (UniProt Q9VZM5).
T1 sequence: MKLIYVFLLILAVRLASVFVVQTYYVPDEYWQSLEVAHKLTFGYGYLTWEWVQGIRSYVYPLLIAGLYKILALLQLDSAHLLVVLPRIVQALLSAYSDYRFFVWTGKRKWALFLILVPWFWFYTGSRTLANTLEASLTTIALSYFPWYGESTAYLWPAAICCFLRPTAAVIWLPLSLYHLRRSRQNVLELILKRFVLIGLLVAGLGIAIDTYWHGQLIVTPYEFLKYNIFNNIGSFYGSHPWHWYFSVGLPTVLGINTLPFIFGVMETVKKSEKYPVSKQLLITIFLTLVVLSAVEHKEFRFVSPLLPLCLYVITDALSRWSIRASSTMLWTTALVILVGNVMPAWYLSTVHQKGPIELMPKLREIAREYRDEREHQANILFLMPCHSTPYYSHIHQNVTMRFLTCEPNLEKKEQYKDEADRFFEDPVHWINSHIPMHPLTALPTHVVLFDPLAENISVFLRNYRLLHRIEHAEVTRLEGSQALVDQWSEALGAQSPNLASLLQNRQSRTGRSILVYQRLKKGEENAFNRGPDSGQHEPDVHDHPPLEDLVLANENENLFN
Description: affinity purification with mass spectrometry; S2 cells stably expressing PIG-B-Flag crosslinked with 1% formaldehyde, sonicated in RIPA buffer, anti-DYKDDDDK magnetic beads, 2DICAL; S2 cells without PIG-B-Flag as control; hits >2-fold over control.

The target in assay [2] is T2, lamin-conjugated miniTurboID tagged with V5 (V5-mT-Lamin) (Drosophila) (UniProt P08928).
T2 sequence: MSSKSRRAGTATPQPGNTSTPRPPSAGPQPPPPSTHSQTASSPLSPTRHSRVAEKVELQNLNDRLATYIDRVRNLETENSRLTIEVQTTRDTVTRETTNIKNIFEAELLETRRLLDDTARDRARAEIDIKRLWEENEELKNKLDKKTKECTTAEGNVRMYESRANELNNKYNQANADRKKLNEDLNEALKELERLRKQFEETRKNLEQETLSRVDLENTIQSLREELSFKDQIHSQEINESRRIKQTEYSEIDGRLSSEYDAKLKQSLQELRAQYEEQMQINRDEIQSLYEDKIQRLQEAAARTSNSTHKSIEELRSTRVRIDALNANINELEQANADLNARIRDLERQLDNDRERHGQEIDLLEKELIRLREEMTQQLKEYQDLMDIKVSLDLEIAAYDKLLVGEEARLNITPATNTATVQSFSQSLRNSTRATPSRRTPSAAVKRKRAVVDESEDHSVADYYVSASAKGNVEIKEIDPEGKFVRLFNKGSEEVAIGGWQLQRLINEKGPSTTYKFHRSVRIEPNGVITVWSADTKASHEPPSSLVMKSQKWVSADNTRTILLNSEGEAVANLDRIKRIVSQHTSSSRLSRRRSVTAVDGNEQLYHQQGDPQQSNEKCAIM
Description: proximity labelling; S2 cells expressing V5-mT-Lamin or V5-mT, 0.5 mM CuSO4 and 50 uM biotin for 6 h, streptavidin magnetic beads, 2DICAL mass spectrometry in triplicate; >2-fold enrichment and P<0.05 over V5-mT.

For assay [3], the target named is T2, lamin-conjugated miniTurboID tagged with V5 (V5-mT-Lamin) (Drosophila). Description: proximity labelling; S2 cells expressing V5-mT-Lamin or V5-mT, 0.5 mM CuSO4 and 50 uM biotin for 6 h, streptavidin magnetic beads, immunoblot with anti-PIG-B. (Immunoblotting shows a protein as a band on a membrane.)

These are yes or no findings as the source states them, for the method shown. Binding seen in cells or lysates may run through a third protein. A yes stands for co-enrichment or nearness to the bait. Other partners may have been found. Where a sequence is shown, tags or fusion partners need not be part of it.

B1: Krueppel homolog 2 (Kr-h2) (protein, UniProt Q9V447 1-276)
chain: MSAPTDQPPRSEGAQTNSSERSSQQQEQPQQSQSQNVPAKLLQHFQTNRIDSALWALRLLVIFFTVSYVLPIFTSQQSAFSKVMLANAAISALRLHQRLPAFAFSREFLARLFAEDSCHYMMYSLIFFNIRPSLLVLIPVLLYSVLHASSYSLKLLDLIGQNSWWGARFIISIVEFQAANILKATAFCEIFIMPYAIVLAFMNHAGLMTPVIYYHYLVMRYSSRRNPYPRNAFAELRITFEALAARSPPAFAKIIRGGIGFVNRLAPQLQPAAAQE
Take B1: the binding result in assay [1] was “binds”.

B2: Lamin-B receptor (LBR) (protein, UniProt Q8MLV1 1-741)
chain: MQHSPSTTTDHIHFAARFFDRNSYTMDRRLRRPRRTEDVSSGPLLAQSKQPSLLPVTRRTGSVTAAGATATATATAGPATRTRASPSRNKVVAPPSPDLGPRTRRSSRPRSSVGPLTGSGSGSSLPIKAAIKARTPIPEVSEVSSPIRLSTSNLPMTLTTNTSSGAPNKAFNTSSVNSGNSFSRTTTSSTTTTTERIEIRAEGDGEVDTDSIRKRITERLRRSVSKTISNLAGTPVTNTEEGSRYSRSVSRSVYDDEKSSKRSYSTGEEDIDEEDELEEDQFRSFNVTRKSATPAEISCRQLKAPREFGGWLGAFLFLLLLPTAVYYLTWSCTARNACQFKHLNLGILLDVNYLTRQVFQPRVVGAFAAYQVVVFLLVALLPGRRVHLTRETYKFNCLAVSLTLLIASGVAEYLKYPVVTFVLRHYLRFCIFGLVGAFVAAAWSYWLVDTAKYNVLRQTLTNDYGRTGSFVVDFALGRQLNPKWLGRVDWKQFQYRLSLVTTLIYATCYIYQTLVWPQKPQLGEQEGYLYQAKYYWNNVNYDPATLFSASCLLFYVLDAIIFEHHLSSSFELQHEGYGCLLLLRYAATPYLLTAVTKYFYEQRVPISCWYAPLAVAALLSLGLLVKRFSCAYKYKYRLNSQSPIFANIETIHTYQGSRLLLSGMWGWVRQPNYLGDIVALLALAAPMALRPAWPPVLGLSLIILLLLHRATRANARNQARYHSSWQRYSTQVRSYILPRVY
Turning to B2, the binding result in assay [1] and in assay [2] was “binds” each time.

B3: Bicaudal D (BicD) (protein, UniProt P16568 1-782)
chain: MSSASNNGPSADQSVQDLQMEVERLTRELDQVSSASAQSAQYGLSLLEEKSALQQKCEELETLYDNTRHELDITQEALTKFQTSQKVTNKTGIEQEDALLNESAARETSLNLQIFDLENELKQLRHELERVRNERDRMLQENSDFGRDKSDSEADRLRLKSELKDLKFRETRMLSEYSELEEENISLQKQVSSLRSSQVEFEGAKHEIRRLTEEVELLNQQVDELANLKKIAEKQMEEALETLQGEREAKYALKKELDGHLNRESMYHISNLAYSIRSNMEDNASNNSDGEEENLALKRLEADLSTELKSPDGTKCDLFSEIHLNELKKLEKQLESMESEKTHLTANLREAQTSLDKSQNELQNFMSRLALLAAHVDALVQLKKQIDVKEQGKEGGQKKDELEQQLRALISQYANWFTLSAKEIDGLKTDIAELQKGLNYTDATTTLRNEVTNLKNKLLATEQKSLDLQSDVQTLTHISQNAGQSLGSARSTLVALSDDLAQLYHLVCTVNGETPTRVLLDHKTDDMSFENDSLTAIQSQFKSDVFIAKPQIVEDLQGLADSVEIKKYVDTVSDQIKYLKTAVEHTIDMNKHKIRSEGGDALEKVNTEEMEELQEQIVKLKSLLSVKREQIGTLRNVLKSNKQTAEVALTNLKSKYENEKIIVSDTMSKLRNELRLLKEDAATFSSLRAMFAARCEEYVTQVDDLNRQLEAAEEEKKTLNQLLRLAVQQKLALTQRLEEMEMDREMRHVRRPMPAQRGTSGKSSFSTRPSSRNPASSNANPF
For the molecule B3, the binding entry in assay [2] was “binds”.

B4: Torsin (protein, UniProt O77277 25-340)
chain: VDPLTIGAVGAVALGAYFKEHTYCRFAECCDDRNIPARIDELERSLERTLIGQHIVRQHIVPALKAHIASGNKSRKPLVISFHGQPGTGKNFVAEQIADAMYLKGSRSNYVTKYLGQADFPKESEVSNYRVKINNAVRDTLRSCPRSLFIFDEVDKMPSGVFDQLTSLVDYNAFVDGTDNTKAIFIFLSNTAGSHIASHLGSVMKNGRLREDTRLSDFEPLLRKAAYNMDGGMKKTTMIESHVIDHFIPFLPMEKAHVIKCLEAELLRWRRDPKQANNQKIIEDIINSSISYDRTHSLFAISGCKTLEKKVAMAIY
As for B4, the binding entry in assay [1] is recorded as “binds”.

B5: Otefin (Ote) (protein, UniProt P20240 1-424)
chain: MADVDDFDSLSNAELRAKMLAQGLPNIPVTDSSRKVLVKRLRASIGGQASPAASPKKTNRRETLAPAPGAPSAPAAASTPVDKLDGNKVAPATKARRTITAAEAKEPVRRLPEEAIRRRPDEADRLRSEEPVAARKPTTAPAAQPVQTRRTSTSSGSERKVVEPLRKPETIVEQPASSKRADREENYLKVNSLIVLESDEEEDEQLVQAADLVEQEHAARQKTTKLASSGTTTYEYKSKVVEPPRRQVYEATAAPVLPPSVPSARAQTTSSTRSYDYASNPAPGRYSSFVRTAAQGYVTAEAPPVASYSSSYKRTYANELSDDTDSKEDQYESTFARNLARLRAERIGDRISPYSRRTLASGNAGSGSLGYEPRARRSLRPNDNSVSEAFNRWLNSLEQKYHIKSKLFIVLLVLLLIGVYYIFY
As for B5, the binding entry in assay [1] and in assay [2] was “binds” each time.

B6: PIG-B (endogenous) (enzyme, UniProt Q9VZM5 1-561)
chain: T1 sequence
In the case of B6, in assay [3], the binding result is “binds”.
